Reference: PubChem BioAssay AID493014 (National Center for Advancing Translational Sciences (NCATS), 2011)
Values joined by “and” are separate entries in the source; they are usually repeats but may differ in a detail not shown here. Equal values may be shown once. The list shows a part of the results. These are further read-outs of the screen, such as a control signal, another cell line or another target. No call is given for them. Most of these compounds were active or inconclusive in the main read-out, so they are no random draw. Words in brackets tell the shape of the fitted curve; partial curves, single points and poor fits give uncertain potencies.

Experiment: qHTS Assay to Find Inhibitors of Chronic Active B-Cell Receptor Signaling
Details: ABC-DLBCL IkBa-CBG/CBR reporter, luminescence ratio (green luciferase fused to IkBa over red control in TMD8 lymphoma cells), 4 h
In short: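 Doxycycline induced both beetle luciferases in TMD8 lymphoma cells; IKK-driven degradation limits the IkappaBalpha-fused green signal, while red luminescence normalises for cell number and nonspecific effects. Compounds tested up to 46 uM, 4 hrs.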

[1] = measured here: CBR red luminescence, cell number

| SMILES | AC50 [1] | AC50 (measured here: IkBa-CBG green luminescence) |
| --- | --- | --- |
| Cn1c(-c2ccccc2)c(/C=N/NC(=O)c2ccc(O)cc2)c2ccccc21 | 14.1 µM [falling, partial curve, poor fit] | – |
| Cc1ccccc1C(=O)Nc1ccc2c(c1)OCO2 | 12.6 µM [falling, partial curve] | – |
| COc1ccc(CNC(=O)/C(C)=C\C(=O)O)cc1 | 6.31 µM [falling, full curve, poor fit] | – |
| O=C(CSc1ccccc1F)NCCCN1CCCC1=O | 29.1 µM [rising, single point] | – |
| O=C(CNC(=O)c1ccccc1F)c1ccc(Br)cc1 | 11.2 µM [falling, partial curve, poor fit] | – |
| COc1ccc(Nc2nc(OC)nc(N3CCN(c4ccc(OC)cc4)CC3)n2)cc1 | 5.8 µM [rising, full curve, poor fit] | – |
| Cc1occc1-c1nnc(SCC(N)=O)n1Cc1ccccc1 | 16.4 µM [falling, single point] | – |
| Cc1oc(-c2cc(F)ccc2F)nc1CN1CCN(c2ncnc3ccccc23)CC1 | 12.6 µM [falling, single point] | – |
| COc1ccccc1NS(=O)(=O)c1ccc(C)c(C(=O)N2CCN(c3ccc(O)cc3)CC2)c1 | 16.4 µM [falling, partial curve, poor fit] | – |
| c1ccc(-n2nnnc2NCCc2c[nH]c3ccccc23)cc1 | 3.55 µM [rising, single point] | – |
| O=C(Cc1c(O)c2ccccc2[nH]c1=O)NCc1ccc(F)cc1 | 29.1 µM [falling, partial curve, poor fit] | – |
| O=C(N/N=C/c1ccc([N+](=O)[O-])o1)c1ccc2c(c1)OCO2 | 4.47 µM [falling, partial curve] | – |
| S=c1nc[nH]c2nc[nH]c12 | 3.16 µM [rising, partial curve, poor fit] and 1.46 µM [rising, partial curve] | – |
| Cc1nc(N2CCCCC2)c2c(C)c(C(=O)Nc3ccccc3C(F)(F)F)sc2n1 | 5.01 µM [rising, partial curve, poor fit] | – |
| CN1CCSc2ccc(C(=O)Nc3cccc(F)c3)cc21 | 17.8 µM [falling, single point] | – |
| O=C1OCCC1Sc1nnc(-c2ccccc2)o1 (stereo unspecified) | 10 µM [falling, partial curve] | – |
| Cc1ccc(-c2nnc(SCc3nc4ccccc4[nH]3)n2Cc2ccco2)cc1 | 17.8 µM [falling, partial curve, poor fit] | – |
| COc1cc(C(=O)N/N=C(\C)Cn2nc([N+](=O)[O-])cc2C)ccc1O | 13 µM [falling, partial curve] | – |
| Cc1ccc(C(=O)COC(=O)c2ccccc2NC(=O)c2ccccc2)cc1[N+](=O)[O-] | 3.66 µM [falling, partial curve] | – |
| CC1=NN(C(N)=S)C(=O)C1N=Nc1ccc(Cl)cc1Cl (stereo unspecified) | 17.8 µM [rising, partial curve, poor fit] | – |
| O=C(Nc1ccc2c(c1)OCCO2)c1ccc(S(=O)(=O)N2CCCCC2)cc1 | 12.6 µM [falling, partial curve, poor fit] | – |

| SMILES | AC50 [1] | AC50 (measured here: IkBa-CBG green luminescence) |
| --- | --- | --- |
| CC/C(O)=C1\C(=O)CC(C)(C)CC1=Nc1ccccc1C | 1.3 µM [falling, partial curve, poor fit] | – |
| Cc1cccc(/C=N/NC(=O)c2cc(Br)ccc2OCc2ccccc2)n1 | 35.5 µM [falling, single point] | – |
| COc1cccc2sc(N3CCN(C(=O)c4ccco4)CC3)nc12 | 16.4 µM [falling, single point] | – |
| CCOC(=O)N/N=C\c1ccc(-c2cc(Cl)ccc2Cl)o1 | 35.5 µM [falling, single point] | – |
| COC(=O)c1sc(NC(=O)CC(C)C)c(C(=O)OC)c1C | 32.6 µM [falling, single point] | – |
| COc1ccccc1NC(=O)N1CCc2[nH]c3ccc(Cl)cc3c2C1 | 1 µM [falling, full curve, poor fit] | – |
| CC(C)(C)CC(C)(C)NCC(O)COCCOc1ccc(Br)cc1 (stereo unspecified) | 32.6 µM [falling, single point] | – |
| NS(=O)(=O)c1ccc(CCNC(=O)NC2CCCCC2)cc1 | 10 µM [rising, partial curve, poor fit] | – |
| COC(=O)c1sc2nc(C)nc(SCC(=O)Nc3sccc3C(N)=O)c2c1C | 2.91 µM [falling, full curve] | – |
| O=S(=O)(c1ccc(-c2cn3ccccc3n2)cc1)N1CCOCC1 | 29.1 µM [rising, single point] | – |
| CCc1nc(Nc2ccc3nccnc3c2)c2oc3ccccc3c2n1 | 0.251 µM [falling, full curve, poor fit] | – |
| CC(C)OCCCNC(=O)CN1C(=O)/C(=C/c2ccccc2F)Oc2ccccc21 | 22.4 µM [rising, single point] | – |
| COc1ccc(C2CC(=O)Nc3cc(OC)c(OC)cc32)cc1Br (stereo unspecified) | – | 14.1 µM [falling, partial curve] |
| CCCC(=O)Nc1nc2ccc(S(N)(=O)=O)cc2s1 | 25.9 µM [rising, single point] | – |
| CCOC(=O)c1ccc(NC(=O)C2CCN(S(=O)(=O)CC)CC2)cc1 | 9.2 µM [rising, partial curve, poor fit] | – |
| COc1ccc2o/c(=N/NC(=O)c3cccs3)c(C(N)=O)cc2c1 | 11.2 µM [falling, single point] | – |
| CC(C)CN(C(=O)CSc1nc(-c2ccccc2)cn1N)c1c(N)n(Cc2ccccc2)c(=O)[nH]c1=O | 23.1 µM [falling, partial curve] | – |
| Cc1ccc(NC(=O)CSc2nc(=O)n(CCCN(C)C)c3c2CCC3)cc1F | 12.6 µM [falling, partial curve] | – |
| COC(=O)c1ccc(OCC(O)CN2C(=O)c3ccccc3S2(=O)=O)cc1 (stereo unspecified) | 11.2 µM [rising, single point] | – |
| CC(=O)c1ccccc1NC(=O)COC(=O)/C(=C/c1ccccc1)n1nnnc1C | 11.2 µM [falling, partial curve] | – |

Look-ups from the results shown.
Under AC50 [1], Cc1ccc(NC(=O)CSc2nc(=O)n(CCCN(C)C)c3c2CCC3)cc1F shows 12.6 µM [falling, partial curve]
Under AC50 [1], CC(C)OCCCNC(=O)CN1C(=O)/C(=C/c2ccccc2F)Oc2ccccc21 shows 22.4 µM [rising, single point]
Under AC50 [1], CC(C)CN(C(=O)CSc1nc(-c2ccccc2)cn1N)c1c(N)n(Cc2ccccc2)c(=O)[nH]c1=O shows 23.1 µM [falling, partial curve]
